The other results are listed elsewhere or left out. Single values are uncertain here, since repeats match poorly.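 The cells were human embryonic kidney cells carrying a Renilla luciferase gene, driven by the HSV-TK promoter, on a plasmid put in briefly by transfection. This is the first-round screen of about ten thousand compounds, looking for ones that raise reporter output.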

The test system of the first test is HEK 293FT. As to the kind of experiment: log relative Renilla luciferase luminescence (reporter expression vs reference, reference not stated) (log (base not stated)); higher = higher recombinant reporter expression. As to conditions: 10 µM; time after transfection 48 h. As for the experimental part:
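HEK 293FT cells transiently transfected with pRL-TK (Renilla luciferase) were treated with compounds at 10 uM and luminescence was read about 42 h later. Values are log relative Renilla luminescence (log base and reference not stated). Single-pass screen; 2080 natural products library.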
For the molecule `C[C@H]1[C@H](C)CC[C@]2(C(=O)O[C@@H]3O[C@H](CO)[C@@H](O)[C@H](O)[C@H]3O)CC[C@]3(C(=O)O)C(=CC[C@@H]4[C@@]5(C)CC[C@H](O[C@@H]6O[C@H](C)[C@@H](O)[C@H](O)[C@H]6O)C(C)(C)[C@@H]5CC[C@]43C)[C@H]12`, the log is -0.0297.

`CC1(C)C=Cc2c(cc3occ(-c4ccc(O)cc4)c(=O)c3c2O)O1` [Alpinumisoflavone]: the log came out at 0.0141.

In the case of `O=c1c(O)c(-c2ccc(O)cc2)oc2cc(O)cc(O)c12` [Kaempferol], the log worked out at 0.0366.

Take `C/C=C/c1ccc2c(c1)[C@H](C)[C@@H](c1ccc(O)cc1)O2` [(+)-Conocarpan]: the log was -0.157.

Take `CC(=O)CC1CCCCN1C` (stereo not given) [Methylisopelletierine]: the log is 0.0838.

`O=c1cc(-c2ccc(O)cc2)oc2cc(O)cc(O)c12` [Apigenin]: the log stood at 0.11.

Regarding `COC(=O)C[C@H](O)C(=O)O` [Malic acid 4-Me ester], the log was -0.17.

In the case of `CC(=O)O[C@@H]1C[C@@H](C)[C@](O)(CCC2=CC(=O)OC2)[C@@]2(C)CCCC(C)(C)[C@H]12` [Vitexilactone], the log was -0.205.

As to `Oc1ccc(/C=C/c2cc(O)cc(O)c2)cc1` [Resveratrol], the log is 0.0772.

For `C=C1[C@H](OC(=O)C(C)C)[C@@H](O)[C@@H](OC(=O)c2cccnc2)C(C)(C)/C=C\[C@H](C)[C@H](OC(C)=O)[C@@]2(O)C[C@@](C)(OC(C)=O)[C@H](OC(=O)c3ccccc3)[C@@H]2[C@H]1OC(C)=O`, the log is -0.184.

A further test deals with HEK 293FT. The description is as above. Particulars: 10 µM; time after transfection 48 h. The source holds these as a separate data set.
As for `C[C@@H]1O[C@@H](OC[C@H]2O[C@@H](Oc3c(-c4ccc(O)c(O)c4)oc4cc(O)cc(O)c4c3=O)[C@H](O)[C@@H](O)[C@@H]2O)[C@H](O)[C@H](O)[C@H]1O`, the log was -0.335.

Regarding `C[C@H](CCC(=O)O)[C@H]1CC[C@H]2[C@@H]3C(=O)C[C@@H]4CC(=O)CC[C@]4(C)[C@H]3CC(=O)[C@]12C`, the log was -0.0614.

In the case of `CC(C)C[C@H](NC(=O)[C@@H](COC(C)(C)C)NC(=O)[C@H](Cc1ccc(O)cc1)NC(=O)[C@H](CO)NC(=O)[C@H](Cc1c[nH]c2ccccc12)NC(=O)[C@H](Cc1cnc[nH]1)NC(=O)[C@@H]1CCC(=O)N1)C(=O)N[C@@H](CCCNC(=N)N)C(=O)N1CCC[C@H]1C(=O)NNC(N)=O`, the log turned out to be 0.00866.

On to `C[C@@H]1CN(CCCn2c3ccccc3c3ccccc32)C[C@H](C)N1` [Rimcazole], for which the log amounted to 0.24.

With `CCOC(=O)[C@H](CCc1ccccc1)N[C@@H](C)C(=O)N1[C@H](C(=O)O)C[C@@H]2CCC[C@@H]21`, the log worked out at 0.0439.

Turning to `CN(C)[C@@H]1C(O)=C(C(=O)NCN2CCCC2)C(=O)[C@@]2(O)C(O)=C3C(=O)c4c(O)cccc4[C@@](C)(O)[C@H]3C[C@@H]12`, the log is 0.252.

As to `C#C[C@]1(O)CC[C@H]2[C@@H]3[C@H](C)CC4=C(CCC(=O)C4)[C@H]3CC[C@@]21C`, the log is -0.122.

In the case of `CC(=O)O[C@]1(C(C)=O)CC[C@H]2[C@@H]3C=C(C)C4=CC(=O)CC[C@]4(C)[C@H]3CC[C@@]21C`, the log was -1.45.

Consider `CC(C)(C)NC(=O)[C@@H]1CN(Cc2cccnc2)CCN1C[C@@H](O)C[C@@H](Cc1ccccc1)C(=O)N[C@H]1c2ccccc2C[C@H]1O`, for which the log was -0.145.

Regarding `C=CC1=C(C(=O)O)N2C(=O)[C@@H](NC(=O)/C(=N\OCC(=O)O)c3csc(N)n3)[C@H]2SC1`, the log stood at 0.118.

Consider `CN1CCN2c3ncccc3Cc3ccccc3C2C1` (stereo not given), for which the log was -0.253.

For the molecule `CN1CCN(c2nc3cc(C(F)(F)F)ccc3n3cccc23)CC1`, the log is 0.104.

For `CN(C)CCC=C1c2ccccc2COc2ccccc21` [Doxepin], the log stood at 0.0336.

Regarding `N[C@@H]1CONC1=O`, the log turned out to be 0.0603.

Consider `COc1cc(OC)c(C(=O)CCCN2CCCC2)c(OC)c1`, for which the log amounted to 0.000416.

Regarding `NC(N)=Nc1nc(CSCC/C(N)=N/S(N)(=O)=O)cs1`, the log is -0.0697.

For `COc1ccc(-c2oc3c(CC=C(C)C)c(O[C@@H]4O[C@H](CO)[C@@H](O)[C@H](O)[C@H]4O)cc(O)c3c(=O)c2O[C@@H]2O[C@@H](C)[C@H](O)[C@@H](O)[C@H]2O)cc1`, the log was 0.0173.

Turning to `CC(N/C(=N\C#N)Nc1ccncc1)C(C)(C)C` (stereo not given) [Pinacidil monohydrate], the log was 0.111.

`O=C(O)c1cc(/N=N/c2ccc(S(=O)(=O)Nc3ccccn3)cc2)ccc1O`: the log was -0.302.

Turning to `CCn1cc(C(=O)O)c(=O)c2cc(F)c(N3CCN(C)CC3)cc21`, the log was -0.0796.

In the case of `Cc1cccc(C)c1NC(=O)C(C)N` (stereo not given), the log came to 0.0104.

Regarding `O=C(c1ccccc1)c1ccc2n1CCC2C(=O)O` (stereo not given), the log is -0.235.

`O=C1CC[C@@H](C(=O)N2CSC[C@H]2C(=O)O)N1`: the log was -0.0861.

In the case of `C=C1/C(=C\C=C2/CCC[C@]3(C)[C@@H]([C@H](C)CCCC(C)(C)O)CC[C@@H]23)C[C@@H](O)C[C@@H]1O`, the log was -0.199.

`C[C@H](N[C@@H](CCc1ccccc1)C(=O)O)C(=O)N1CCC[C@H]1C(=O)O`: the log is -0.529.

`CCCCC[C@H](O)/C=C/[C@H]1[C@H](O)CC(=O)[C@@H]1CCCCCCC(=O)O` [Prostaglandin E1]: the log was determined as 0.0571.

Turning to `CC(c1cc2ccccc2s1)N(O)C(N)=O` (stereo not given), the log was -0.0355.

Turning to `OCc1cccnc1`, the log amounted to 0.078.

Take `O=C1[C@H]2CCCC[C@H]2C(=O)N1CCCCN1CCN(c2nsc3ccccc23)CC1`: the log was found to be 0.393.

For the molecule `Cc1cccc(CCN2CCC(C(=O)c3ccc(NS(C)(=O)=O)cc3)CC2)n1`, the log turned out to be 0.0664.
